Primary screen of a compound library

Protein sequences, listed by entry. Tags and fused reporters are not part of them. Residues count along the entry.
UniProt Q4DA54, 1-478: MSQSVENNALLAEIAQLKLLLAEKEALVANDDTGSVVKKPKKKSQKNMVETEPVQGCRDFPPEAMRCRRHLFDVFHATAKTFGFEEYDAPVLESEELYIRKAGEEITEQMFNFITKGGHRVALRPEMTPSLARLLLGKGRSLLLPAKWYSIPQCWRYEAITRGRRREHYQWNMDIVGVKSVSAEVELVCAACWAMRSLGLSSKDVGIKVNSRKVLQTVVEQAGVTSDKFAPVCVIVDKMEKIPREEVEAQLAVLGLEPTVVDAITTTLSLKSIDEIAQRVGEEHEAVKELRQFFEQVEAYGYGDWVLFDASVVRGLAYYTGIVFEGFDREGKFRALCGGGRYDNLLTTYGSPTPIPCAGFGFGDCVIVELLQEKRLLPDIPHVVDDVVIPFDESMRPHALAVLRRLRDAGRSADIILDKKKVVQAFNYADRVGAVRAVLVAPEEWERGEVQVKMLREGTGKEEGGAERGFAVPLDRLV
UniProt P9WNZ1, whole entry: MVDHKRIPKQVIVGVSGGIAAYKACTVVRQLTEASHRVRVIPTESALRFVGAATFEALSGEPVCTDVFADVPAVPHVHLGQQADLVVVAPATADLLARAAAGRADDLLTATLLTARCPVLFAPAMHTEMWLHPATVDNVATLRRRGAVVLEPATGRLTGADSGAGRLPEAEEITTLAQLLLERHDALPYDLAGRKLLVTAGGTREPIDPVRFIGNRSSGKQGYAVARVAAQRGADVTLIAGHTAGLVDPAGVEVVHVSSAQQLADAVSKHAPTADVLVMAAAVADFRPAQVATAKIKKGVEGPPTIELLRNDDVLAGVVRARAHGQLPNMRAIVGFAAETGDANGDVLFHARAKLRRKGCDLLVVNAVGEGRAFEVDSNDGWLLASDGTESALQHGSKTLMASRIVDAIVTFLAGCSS
UniProt A4I591, 1-473: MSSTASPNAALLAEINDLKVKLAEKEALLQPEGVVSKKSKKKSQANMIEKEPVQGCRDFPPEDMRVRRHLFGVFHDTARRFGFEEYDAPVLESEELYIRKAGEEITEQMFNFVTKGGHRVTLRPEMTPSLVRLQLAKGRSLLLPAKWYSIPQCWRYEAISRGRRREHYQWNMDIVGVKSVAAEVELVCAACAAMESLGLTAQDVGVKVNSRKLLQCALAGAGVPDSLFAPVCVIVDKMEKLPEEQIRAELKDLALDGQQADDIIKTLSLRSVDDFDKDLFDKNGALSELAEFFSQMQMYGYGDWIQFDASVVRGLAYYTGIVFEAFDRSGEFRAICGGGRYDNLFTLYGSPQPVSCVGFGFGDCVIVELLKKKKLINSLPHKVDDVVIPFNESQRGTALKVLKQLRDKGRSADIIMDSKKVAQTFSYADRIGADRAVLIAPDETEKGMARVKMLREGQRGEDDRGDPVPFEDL

Values are the deposited “Percent Effect”, in %. The controls that fix the scale are not given in the record; negative values are as filed. This is an unselected part of the compounds tested. Two or more numbers in one place are separate tests of the same structure; such repeats can differ widely. A dash means the value is not listed here; it may have been measured.

TcHisRS: 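Enzyme assay of histidyl-tRNA synthetase; the read-out is not stated. Target: Histidine-tRNA ligase, Trypanosoma cruzi CL Brener (UniProt Q4DA54). Tested at 30 µM. The record gives no direction; compounds that gave an IC50 in retests scored well above the rest, so higher reads as stronger inhibition. Of about 69,000 compounds tested this way, about 31 (0.045%) reached 50% or more in at least one test.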
Leishmania in macrophages: 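Cell assay of Leishmania donovani living inside macrophages; the read-out is not stated. Tested at 30 µM. The record gives no direction; compounds that gave an IC50 in retests scored well above the rest, so higher reads as stronger inhibition. Size under these conditions: about 69,000 compounds, about 1,000 of them at 50% or above in at least one test.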
Toxoplasma: 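Assay of Toxoplasma gondii numbers, read through their beta-galactosidase reporter with a colour substrate. Concentration: 10 µM. Higher reads as fewer parasites (inferred from which compounds were picked for retests). About 67,000 compounds were tested under these conditions; 0.38% (about 260) showed 50% or more at least once.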
CoaBC: 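Coenzyme A biosynthesis protein CoaBC, Mycobacterium tuberculosis (UniProt P9WNZ1). Enzyme assay of CoaBC with a phosphate dye (Biomol Green) read at 650 nm. Concentration: 30 µM. Higher reads as stronger inhibition, judged from the few compounds that gave an IC50. Most strong results did not repeat in a second test. Size under these conditions: about 67,000 compounds, about 40 of them at 50% or above in at least one test.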
LiHisRS: 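Enzyme assay of histidyl-tRNA synthetase; the read-out is not stated. Target: Histidine-tRNA ligase, Leishmania infantum (UniProt A4I591). Concentration: 30 µM. Higher reads as stronger inhibition (inferred: compounds with an IC50 in retests scored well above the rest). The assay is labelled LdHisRS but filed under L. infantum. Size under these conditions: about 69,000 compounds, about 410 of them at 50% or above in at least one test.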

SMILES | TcHisRS | Leishmania in macrophages | Toxoplasma | CoaBC | LiHisRS
CN(C)CCN1CCO[C@H]2CN(C(=O)N(C)C)C[C@H]21 | 7.362% | - | - | - | -3.419%
CS(=O)(=O)Nc1cnn(Cc2cccc(Cl)c2)c1 | 6.931% | -8.715% | -8.25% | -1.687% | 12.09%
CCc1ccc(S(=O)(=O)N2CCC3(CC(C(=O)NC)=NO3)C2)cc1 (centres unmarked) | 2.732% | 10.11% | 9.108% | -1.158% | 7.843%
Cc1cc(N2CCCN(c3nc(C)nc(C)c3C)CC2)ccn1 | 3.279% | -8.64% | 14.19% | 8.068% | 24.66%
Fc1ccccc1C1NCCc2cc3c(cc21)OCCO3 (centres unmarked) | 5.78% | 9.513% | -11.97% | 0.1227% | 12.37%
CCc1c(C)nn(CCNC(=O)c2cnn[nH]2)c1C | 8.081% | 22.72% | -24.35% | -2.302% | 14.75%
COc1cccc(N2CCN(Cc3ccc4occc4c3)CC2=O)c1 | 10.55% | 1.742% | 10.65% | 2.768% | 13.48%
Cc1nn(C)c(Cl)c1C1CCCN1C(=O)c1ccc(C(N)=O)cn1 (centres unmarked) | 0.5814% | 4.469% | 5.748% | 7.237% | 10.71%
O=C(Cn1nc(-c2ccc(F)cc2)oc1=O)NCCc1ccccc1 | 2.959% | 7.223% | -2.402% | 4.436% | 16.07%
Cc1ccc2c(c1)C1(CC2)CCN(c2nncs2)CC1 | 8.264% | 8.524% | 12.01% | 4.086% | 24.76%
Cl.[H][C@@]12CCCCN[C@]1([H])[C@@H](c1ccccc1)CCN2S(=O)(=O)N1CCCC1 | - | 22.4% and 20.31% | -40.93% | - | -
O=C(O)C(F)(F)F.O=C(O)C(F)(F)F.O=C(O)c1c(-c2cccnc2)ncc2c1CCN(Cc1cccnc1)C2 | - | 5.391% | 1.605% | - | -
COCCc1noc(CNC2CCCC(C)(C)C2)n1 (centres unmarked) | 2.4% | 16.58% | -44.44% | 10.17% | 9.836%
COc1ccccc1OC1CCN(C(=O)c2cnc(C)cc2C)CC1 | 9.827% | -2.422% | -4.526% | -6.198% | 12%
CNc1ccc(C2CN(c3nc(C)cc(C)n3)CCO2)nc1 (centres unmarked) | 7.345% | 23.61% | -2.836% | 9.685% | 32.17%
CCN(C)S(=O)(=O)NC(C)c1cnc(N(C)C2CCCCC2)nc1C (centres unmarked) | 4.348% | 22.1% | -0.976% | -6.075% | 22.37%
CC1CCN(S(=O)(=O)N2CCc3c(c(C(=O)O)nn3CC3CC3)C2)CC1 | 5.682% | -94.9% | -3.316% | 4.497% | 3.333%
CN1CCCC1c1nccnc1-c1ccc(C(=O)O)cc1 (centres unmarked) | 12.41% | -7.902% | 14.92% | 4.196% | -1.418%
CC(=O)c1cnc(NCCN2CCCC2)nc1C | 12.06% | 20.04% | 8.065% | -0.9709% | 17.65%
Cc1cc(N2CCc3c(ncn3C)C2)n2nc(C(F)(F)F)nc2n1 | 5.521% | 17.99% | -2.753% | -0.6402% | 22.22%
c1ccc2oc(CN3CCCC3Cn3cncn3)nc2c1 (centres unmarked) | 2.326% | 36.58% | -17.4% | 6.579% | -17.86%
c1ccc(CN2CC[C@@H]3O[C@@H](COCCN4CCCC4)CC[C@@H]32)nc1 | 9.804% | - | - | 5.5% | 20%
Cc1nc2cc(C(=O)N3C[C@@H](C(=O)O)[C@H](C4CC4)C3)ccc2[nH]1 | 10% | 1.045% | -10.7% | -4.622% | 12.82%
Cc1ccc(-n2nc3n(c2=O)CCN(C(=O)c2ccc(Cl)cc2)C3)cc1 | 6.509% | 13.27% | -4.606% | -6.316% | 8.276%
COC(=O)c1cccc(S(=O)(=O)Nc2ccc(Cl)c(C(N)=O)c2)c1 | 2.941% | 26.2% | 4.628% | 7.337% | 8.333%
COc1ccccc1C(=O)N1CCN(C(=O)CCCc2cn[nH]c2)CC1 | 10.71% | 25.46% | 3.061% | -2.58% | 18.6%
CNCC[C@H]1CC(C)(C)Oc2ccc(OC)cc21 | 13.56% | -0.8981% and 25.69% | 25.7% | 3.494% | 17.14%
[H][C@]12CCN(S(=O)(=O)c3cccs3)C[C@@]1([H])OCCN(C(C)=O)C2 | - | 8.226% | 15.06% | - | -
[H][C@@]12CS(=O)(=O)C[C@]1([H])N(Cc1cccc(OC(C)C)c1)CCN2CCC | - | 1.985% | -4.184% | - | -
O=C(C1CCCC1)N1C[C@@H]2CCNC[C@@H]21 | 6.796% | - | - | 4.58% | 13.59%

The first 3 entries again:

| SMILES | TcHisRS | Leishmania in macrophages | Toxoplasma | CoaBC | LiHisRS |
|---|---|---|---|---|---|
| `CN(C)CCN1CCO[C@H]2CN(C(=O)N(C)C)C[C@H]21` | 7.362% | - | - | - | -3.419% |
| `CS(=O)(=O)Nc1cnn(Cc2cccc(Cl)c2)c1` | 6.931% | -8.715% | -8.25% | -1.687% | 12.09% |
| `CCc1ccc(S(=O)(=O)N2CCC3(CC(C(=O)NC)=NO3)C2)cc1` (centres unmarked) | 2.732% | 10.11% | 9.108% | -1.158% | 7.843% |

Measurements from “University of Dundee, Small-Polar-MMV Screening Library” (2021), ChEMBL document CHEMBL3988442.